Test results reported in PMC10002782.
Where two headings read alike, the source gives them in different places. No constants are given. Whether binding was seen depends on the method and setting. In cells and extracts the contact can be indirect. Some binding calls cover weakened binding; strength is not graded here.

Sequences of proteins named here, by UniProt entry; tags and fusion partners are left off.
UniProt P70536: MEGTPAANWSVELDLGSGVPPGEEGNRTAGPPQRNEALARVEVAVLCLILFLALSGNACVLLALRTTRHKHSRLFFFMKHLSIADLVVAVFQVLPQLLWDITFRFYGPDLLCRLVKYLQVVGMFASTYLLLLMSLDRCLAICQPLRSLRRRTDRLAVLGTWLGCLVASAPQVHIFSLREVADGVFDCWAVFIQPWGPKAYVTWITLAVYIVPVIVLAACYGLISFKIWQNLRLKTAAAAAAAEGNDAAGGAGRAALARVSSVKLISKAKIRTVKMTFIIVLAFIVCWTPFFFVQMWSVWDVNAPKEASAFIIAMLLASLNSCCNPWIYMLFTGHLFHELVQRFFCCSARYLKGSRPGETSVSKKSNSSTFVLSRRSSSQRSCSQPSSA
UniProt P61169: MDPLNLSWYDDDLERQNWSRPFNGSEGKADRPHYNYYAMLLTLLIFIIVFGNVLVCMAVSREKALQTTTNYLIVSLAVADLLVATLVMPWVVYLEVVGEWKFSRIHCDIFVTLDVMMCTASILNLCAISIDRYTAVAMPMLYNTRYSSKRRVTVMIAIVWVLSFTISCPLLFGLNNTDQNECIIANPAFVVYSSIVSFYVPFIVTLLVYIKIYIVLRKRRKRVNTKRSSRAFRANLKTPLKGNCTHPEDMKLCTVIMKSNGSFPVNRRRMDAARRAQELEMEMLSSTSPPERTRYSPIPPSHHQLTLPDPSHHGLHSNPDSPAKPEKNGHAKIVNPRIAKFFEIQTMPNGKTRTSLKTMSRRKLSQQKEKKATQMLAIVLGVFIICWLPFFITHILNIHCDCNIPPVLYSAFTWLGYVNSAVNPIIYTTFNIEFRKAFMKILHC

Assays:
[1] = target: oxytocin receptor (rat (endogenous in striatal gliosomes and brain slices)) (UniProt P70536); experiment: co-IP; Triton X-100-soluble membrane proteins (300 µg) of freshly isolated rat striatal gliosomes; immunoprecipitated with 1 µg anti-D2 receptor or anti-OTR antibody overnight at 4 °C, protein G-sepharose; 50 mM sodium borate, 0.1 mM EDTA, pH 7.5; immunoblot
[2] = target: dopamine D2 receptor (rat (endogenous in striatal gliosomes and brain slices)) (UniProt P61169); experiment: proximity ligation; in situ PLA on 10-15 µm rat hemibrain slices (ventral and dorsal striatum); anti-D2 conjugated with PLA PLUS and anti-OTR with PLA MINUS oligonucleotides; astrocytes marked by GFAP and ezrin
[3] = target: dopamine D2 receptor (rat (endogenous in striatal gliosomes and brain slices)) (UniProt P61169); experiment: co-IP; Triton X-100-soluble membrane proteins (300 µg) of freshly isolated rat striatal gliosomes; immunoprecipitated with 1 µg anti-D2 receptor or anti-OTR antibody overnight at 4 °C, protein G-sepharose; 50 mM sodium borate, 0.1 mM EDTA, pH 7.5; immunoblot
[4] = target: oxytocin receptor (rat (endogenous in striatal gliosomes and brain slices)) (UniProt P70536); experiment: as above; remark: listed apart in the source
[5] = target: dopamine D2 receptor (rat (endogenous in striatal gliosomes and brain slices)) (UniProt P61169); experiment: as above; remark: listed apart in the source

“dopamine D2 receptor (from UniProt P61169 1-444)” was tested, and the binding [1] was “binds”.

For “oxytocin receptor (from UniProt P70536 1-388)”, the binding [2] was “binds” and the binding [3] was “binds”.

B1: flotillin-1 (protein, UniProt Q9Z1E1 1-428)
chain: MFFTCGPNEAMVVSGFCRSPPVMVAGGRVFVLPCIQQIQRISLNTLTLNVKSEKVYTRHGVPISVTGIAQVKIQGQNKEMLAAACQMFLGKTEAEIAHIALETLEGHQRAIMAHMTVEEIYKDRQKFSEQVFKVASSDLVNMGISVVSYTLKDIHDDQDYLHSLGKARTAQVQKDARIGEAEAKRDAGIREAKAKQEKVSAQCLSEIEMAKAQRDYELKKATYDIEVNTRRAQADLAYQLQVAKTKQQIEEQRVQVQVVERAQQVAVQEQEIARREKELEARVRKPAEAERYRLERLAEAEKAQLIMQAEAEAESVRMRGEAEAFAVGARARAEAEQMAKKAEAFQMYQEAAQLDMLLEKLPQVAEEISGPLTSANKITLVSSGSGTMGAAKVTGEVLDILSRLPESVERLTGVSISQVNHNKPLRTA
B1 was tested, and the binding [4] was “binds” and the binding [5] was “binds”.
